The list shows a part of the results.
Assays:
Test in all cases: log2 fold change, soluble protein after heating vs DMSO (PISA); higher = thermal stabilisation; K562 lysate, 10 uM; active = over 0.2 and 3.5 SD of the protein, either way, in both replicates (recomputed)
alvocidib = compound: CN1CC[C@H](c2c(O)cc(O)c3c(=O)cc(-c4ccccc4Cl)oc23)[C@H](O)C1 [alvocidib]
Summary of the method: (§1)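 Following dounce homogenisation of K562 pellets in PBS pH 7.4 with 1 mM MgCl2, crude extract at 1 mg/mL protein was incubated for 30 min with 10 μM compound. Aliquots were then heated for 3 min over 48°C-58°C and pooled, NP-40 was added to 0.5% at 4°C, and soluble protein was recovered as the supernatant at 21,000xg for 90 min. Channel-sum-equalised TMTpro 16plex LC-MS/MS quantified this protein. Each value, from duplicates, is a log-two fold change in thermal stability relative to solvent controls.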

Amino acid sequences for entries named in this document (tags omitted). A change or cut given only in a name is not applied to a line headed by its entry.
UniProt P34913, whole entry, looked up: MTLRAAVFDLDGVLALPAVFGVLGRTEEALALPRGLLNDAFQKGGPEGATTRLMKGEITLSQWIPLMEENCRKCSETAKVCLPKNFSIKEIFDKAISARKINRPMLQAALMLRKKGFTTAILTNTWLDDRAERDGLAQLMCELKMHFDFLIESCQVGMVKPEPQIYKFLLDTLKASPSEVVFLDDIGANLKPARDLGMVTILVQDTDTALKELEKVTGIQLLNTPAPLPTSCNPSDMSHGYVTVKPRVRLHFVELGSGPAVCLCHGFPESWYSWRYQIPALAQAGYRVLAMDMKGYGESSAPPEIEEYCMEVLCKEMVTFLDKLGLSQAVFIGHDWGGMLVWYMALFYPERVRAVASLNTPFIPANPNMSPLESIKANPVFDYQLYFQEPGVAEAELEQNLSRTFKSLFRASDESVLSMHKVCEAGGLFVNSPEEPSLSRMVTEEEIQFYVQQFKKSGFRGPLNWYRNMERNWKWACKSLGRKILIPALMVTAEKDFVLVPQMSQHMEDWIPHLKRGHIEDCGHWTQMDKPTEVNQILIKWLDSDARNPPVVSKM
UniProt P50402: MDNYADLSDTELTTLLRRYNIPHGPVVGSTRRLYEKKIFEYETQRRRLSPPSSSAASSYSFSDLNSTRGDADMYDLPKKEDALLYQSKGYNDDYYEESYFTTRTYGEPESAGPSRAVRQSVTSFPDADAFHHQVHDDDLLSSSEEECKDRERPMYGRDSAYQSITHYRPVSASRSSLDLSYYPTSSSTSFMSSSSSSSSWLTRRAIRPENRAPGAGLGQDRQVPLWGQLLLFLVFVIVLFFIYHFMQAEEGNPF
UniProt P55010, whole entry, looked up: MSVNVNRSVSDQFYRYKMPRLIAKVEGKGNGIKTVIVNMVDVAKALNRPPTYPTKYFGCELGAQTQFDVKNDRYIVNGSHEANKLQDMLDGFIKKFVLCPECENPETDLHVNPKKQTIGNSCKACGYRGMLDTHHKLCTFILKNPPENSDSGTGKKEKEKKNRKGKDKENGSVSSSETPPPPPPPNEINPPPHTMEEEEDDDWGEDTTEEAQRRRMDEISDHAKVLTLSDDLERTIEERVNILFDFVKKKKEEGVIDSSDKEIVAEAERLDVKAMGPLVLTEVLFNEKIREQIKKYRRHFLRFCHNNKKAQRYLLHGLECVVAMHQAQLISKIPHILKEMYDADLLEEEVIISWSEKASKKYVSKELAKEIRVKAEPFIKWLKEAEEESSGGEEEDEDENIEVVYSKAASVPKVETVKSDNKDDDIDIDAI
UniProt Q13542: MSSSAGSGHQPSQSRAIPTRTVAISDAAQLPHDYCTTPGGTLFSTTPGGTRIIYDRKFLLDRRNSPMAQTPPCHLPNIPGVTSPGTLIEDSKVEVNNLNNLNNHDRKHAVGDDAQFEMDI
UniProt Q2NKX8: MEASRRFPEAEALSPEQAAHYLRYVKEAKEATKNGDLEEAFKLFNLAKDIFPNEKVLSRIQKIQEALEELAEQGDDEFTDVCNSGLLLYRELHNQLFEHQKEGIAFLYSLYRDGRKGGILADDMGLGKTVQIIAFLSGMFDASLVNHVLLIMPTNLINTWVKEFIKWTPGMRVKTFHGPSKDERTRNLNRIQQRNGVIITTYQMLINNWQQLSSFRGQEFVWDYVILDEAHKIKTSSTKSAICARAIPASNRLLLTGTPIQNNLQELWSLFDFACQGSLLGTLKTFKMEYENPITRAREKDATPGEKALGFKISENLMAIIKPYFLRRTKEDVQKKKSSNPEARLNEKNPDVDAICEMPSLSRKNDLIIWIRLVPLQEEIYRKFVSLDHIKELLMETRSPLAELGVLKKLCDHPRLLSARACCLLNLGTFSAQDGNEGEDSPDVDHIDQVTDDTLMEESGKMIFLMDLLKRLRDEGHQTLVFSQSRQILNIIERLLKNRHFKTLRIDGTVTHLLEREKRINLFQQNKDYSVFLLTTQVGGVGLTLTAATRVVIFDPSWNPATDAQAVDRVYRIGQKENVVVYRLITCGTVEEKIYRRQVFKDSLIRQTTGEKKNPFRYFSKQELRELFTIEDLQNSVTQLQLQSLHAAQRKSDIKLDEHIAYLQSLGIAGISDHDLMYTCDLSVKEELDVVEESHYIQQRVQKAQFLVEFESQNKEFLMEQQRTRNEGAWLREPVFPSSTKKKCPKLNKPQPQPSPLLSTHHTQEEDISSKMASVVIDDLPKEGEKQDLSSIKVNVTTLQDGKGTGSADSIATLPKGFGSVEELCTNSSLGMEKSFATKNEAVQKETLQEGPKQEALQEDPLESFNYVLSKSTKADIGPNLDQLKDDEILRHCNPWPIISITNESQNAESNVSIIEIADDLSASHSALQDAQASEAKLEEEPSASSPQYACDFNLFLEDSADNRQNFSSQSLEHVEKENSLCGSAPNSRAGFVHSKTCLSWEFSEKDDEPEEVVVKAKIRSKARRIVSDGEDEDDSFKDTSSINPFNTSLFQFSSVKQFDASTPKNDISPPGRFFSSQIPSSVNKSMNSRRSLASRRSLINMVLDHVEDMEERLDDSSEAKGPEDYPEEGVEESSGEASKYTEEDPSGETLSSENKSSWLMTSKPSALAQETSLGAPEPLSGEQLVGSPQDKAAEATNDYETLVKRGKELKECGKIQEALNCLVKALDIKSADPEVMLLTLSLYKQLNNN
UniProt Q04637, whole entry, looked up: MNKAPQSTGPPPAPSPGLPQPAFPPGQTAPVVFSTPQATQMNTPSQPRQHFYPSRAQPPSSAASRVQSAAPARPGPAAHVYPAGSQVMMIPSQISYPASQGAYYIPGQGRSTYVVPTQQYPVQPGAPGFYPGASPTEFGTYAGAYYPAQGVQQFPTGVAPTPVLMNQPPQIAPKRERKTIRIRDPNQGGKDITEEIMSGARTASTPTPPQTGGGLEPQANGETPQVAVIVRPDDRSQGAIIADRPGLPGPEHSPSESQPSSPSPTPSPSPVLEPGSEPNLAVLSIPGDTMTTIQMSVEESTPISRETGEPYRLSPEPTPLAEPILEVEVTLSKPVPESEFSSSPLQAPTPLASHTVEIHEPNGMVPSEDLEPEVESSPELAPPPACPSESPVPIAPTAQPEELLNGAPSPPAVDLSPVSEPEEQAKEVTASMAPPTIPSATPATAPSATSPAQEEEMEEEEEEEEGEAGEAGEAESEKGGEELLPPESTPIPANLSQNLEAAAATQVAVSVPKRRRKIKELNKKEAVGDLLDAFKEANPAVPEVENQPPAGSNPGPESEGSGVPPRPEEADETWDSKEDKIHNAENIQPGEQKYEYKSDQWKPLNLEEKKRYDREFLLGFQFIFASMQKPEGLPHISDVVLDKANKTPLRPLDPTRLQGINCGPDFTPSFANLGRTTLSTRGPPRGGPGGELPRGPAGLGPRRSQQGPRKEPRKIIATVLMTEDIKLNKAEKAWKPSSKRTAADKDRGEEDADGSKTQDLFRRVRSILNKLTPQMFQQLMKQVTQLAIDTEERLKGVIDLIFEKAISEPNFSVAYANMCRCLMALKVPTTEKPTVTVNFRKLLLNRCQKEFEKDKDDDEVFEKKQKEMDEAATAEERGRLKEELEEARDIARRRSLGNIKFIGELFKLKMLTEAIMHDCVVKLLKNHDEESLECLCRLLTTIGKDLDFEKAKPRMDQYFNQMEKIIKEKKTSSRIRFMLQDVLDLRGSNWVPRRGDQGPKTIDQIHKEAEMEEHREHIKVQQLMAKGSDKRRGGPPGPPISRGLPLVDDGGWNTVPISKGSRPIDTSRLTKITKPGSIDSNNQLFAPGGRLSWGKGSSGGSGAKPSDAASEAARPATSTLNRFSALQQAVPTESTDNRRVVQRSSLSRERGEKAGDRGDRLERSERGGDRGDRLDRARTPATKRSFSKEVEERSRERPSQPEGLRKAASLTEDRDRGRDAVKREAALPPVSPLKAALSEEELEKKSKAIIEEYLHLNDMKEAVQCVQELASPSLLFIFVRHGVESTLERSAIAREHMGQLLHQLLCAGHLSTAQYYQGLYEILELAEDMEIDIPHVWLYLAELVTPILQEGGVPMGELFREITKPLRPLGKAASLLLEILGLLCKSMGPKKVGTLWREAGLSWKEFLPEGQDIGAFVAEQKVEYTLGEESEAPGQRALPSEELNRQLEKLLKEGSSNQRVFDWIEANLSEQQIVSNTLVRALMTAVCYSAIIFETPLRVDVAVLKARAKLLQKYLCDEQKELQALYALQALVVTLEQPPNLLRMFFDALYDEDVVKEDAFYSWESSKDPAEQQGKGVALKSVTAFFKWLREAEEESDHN
UniProt O75616: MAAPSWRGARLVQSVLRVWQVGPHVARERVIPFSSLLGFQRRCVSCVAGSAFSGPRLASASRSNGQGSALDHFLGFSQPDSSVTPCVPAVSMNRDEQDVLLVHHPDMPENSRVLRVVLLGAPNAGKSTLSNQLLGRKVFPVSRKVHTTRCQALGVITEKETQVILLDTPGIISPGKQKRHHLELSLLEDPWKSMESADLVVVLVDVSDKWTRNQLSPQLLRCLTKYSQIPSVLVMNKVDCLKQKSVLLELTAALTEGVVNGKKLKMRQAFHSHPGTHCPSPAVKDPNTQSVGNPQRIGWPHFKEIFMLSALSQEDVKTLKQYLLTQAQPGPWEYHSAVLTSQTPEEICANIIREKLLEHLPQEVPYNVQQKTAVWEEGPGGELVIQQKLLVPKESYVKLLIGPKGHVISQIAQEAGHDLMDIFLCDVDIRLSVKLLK
UniProt O15372, whole entry, looked up: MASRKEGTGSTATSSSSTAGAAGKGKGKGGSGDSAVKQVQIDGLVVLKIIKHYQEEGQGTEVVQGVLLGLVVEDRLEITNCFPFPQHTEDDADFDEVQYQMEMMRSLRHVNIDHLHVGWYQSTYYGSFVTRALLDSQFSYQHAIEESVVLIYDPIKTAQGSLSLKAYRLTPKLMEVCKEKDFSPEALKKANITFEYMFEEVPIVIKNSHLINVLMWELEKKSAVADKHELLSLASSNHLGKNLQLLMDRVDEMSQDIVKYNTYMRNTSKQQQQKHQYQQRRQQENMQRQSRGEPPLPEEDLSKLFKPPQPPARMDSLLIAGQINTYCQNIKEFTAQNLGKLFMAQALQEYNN
UniProt P16422: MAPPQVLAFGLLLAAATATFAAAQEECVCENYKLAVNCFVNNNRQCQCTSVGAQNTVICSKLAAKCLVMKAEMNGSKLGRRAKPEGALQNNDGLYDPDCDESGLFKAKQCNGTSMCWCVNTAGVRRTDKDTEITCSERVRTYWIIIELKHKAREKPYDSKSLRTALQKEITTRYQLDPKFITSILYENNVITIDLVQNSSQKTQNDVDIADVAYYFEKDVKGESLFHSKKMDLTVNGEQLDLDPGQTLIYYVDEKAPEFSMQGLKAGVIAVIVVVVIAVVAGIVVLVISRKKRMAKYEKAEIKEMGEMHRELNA
UniProt P78344: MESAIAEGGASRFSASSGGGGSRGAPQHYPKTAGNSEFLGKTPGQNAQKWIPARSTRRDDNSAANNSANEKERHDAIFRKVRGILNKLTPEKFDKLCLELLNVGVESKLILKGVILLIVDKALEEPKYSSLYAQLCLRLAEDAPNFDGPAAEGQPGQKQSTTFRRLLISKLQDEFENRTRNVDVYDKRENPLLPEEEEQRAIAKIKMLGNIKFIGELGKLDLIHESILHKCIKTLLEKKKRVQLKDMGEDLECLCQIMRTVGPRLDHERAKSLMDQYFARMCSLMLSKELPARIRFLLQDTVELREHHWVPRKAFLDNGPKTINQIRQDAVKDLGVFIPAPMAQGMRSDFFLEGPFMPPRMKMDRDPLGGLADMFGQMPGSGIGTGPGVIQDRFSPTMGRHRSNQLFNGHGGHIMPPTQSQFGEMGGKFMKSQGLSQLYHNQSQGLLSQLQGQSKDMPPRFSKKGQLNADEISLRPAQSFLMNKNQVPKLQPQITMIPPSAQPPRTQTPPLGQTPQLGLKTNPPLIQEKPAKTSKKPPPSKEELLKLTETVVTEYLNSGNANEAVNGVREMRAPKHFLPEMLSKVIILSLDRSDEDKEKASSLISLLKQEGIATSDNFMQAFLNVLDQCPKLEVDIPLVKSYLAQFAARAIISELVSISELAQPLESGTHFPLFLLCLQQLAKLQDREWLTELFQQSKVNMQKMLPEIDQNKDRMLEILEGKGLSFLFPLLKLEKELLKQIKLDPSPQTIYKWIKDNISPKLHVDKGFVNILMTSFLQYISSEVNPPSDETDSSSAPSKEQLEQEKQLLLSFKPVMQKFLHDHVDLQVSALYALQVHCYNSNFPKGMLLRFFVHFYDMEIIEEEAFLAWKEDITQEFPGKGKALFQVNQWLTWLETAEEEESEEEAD
UniProt Q9NPA8: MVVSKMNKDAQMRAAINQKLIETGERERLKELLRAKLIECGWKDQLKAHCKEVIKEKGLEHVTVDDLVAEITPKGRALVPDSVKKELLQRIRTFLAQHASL

Tubastatin A = compound: CN1CCc2c(c3ccccc3n2Cc2ccc(C(=O)NO)cc2)C1 [Tubastatin A]
Summary of the method: as §1

[1] = compound: CNC(=O)C1=CC=CC=C1NC2=NC(=NC=C2Cl)NC3=C(C=C(C=C3)N4CCOCC4)OC
Summary of the method: as §1

defactinib = compound: CNC(=O)c1ccc(Nc2ncc(C(F)(F)F)c(NCc3nccnc3N(C)S(C)(=O)=O)n2)cc1 [defactinib]
Summary of the method: as §1

[2] = compound: CNc1nc(-c2ccc3c(N)n[nH]c3c2)cc(N2C[C@@H](C(=O)NC3CCCCC3)CC[C@H]2C)n1
Summary of the method: as §1

encorafenib = compound: COC(=O)N[C@@H](C)CNc1nccc(-c2cn(C(C)C)nc2-c2cc(Cl)cc(NS(C)(=O)=O)c2F)n1 [encorafenib]
Summary of the method: as §1

[3] = compound: COC(=O)[C@H](CCSC)NC(=O)C1=C(C=C(C=C1)NC[C@H](CS)N)C2=CC=CC=C2
Summary of the method: as §1

alisertib = compound: COc1cc(Nc2ncc3c(n2)-c2ccc(Cl)cc2C(c2c(F)cccc2OC)=NC3)ccc1C(=O)O [alisertib]
Summary of the method: as §1

[4] = compound: COc1cc2nc(-c3cc(F)ccc3O)nc(N[C@@H]3CNC[C@H]3C(C)(C)O)c2cc1OC
Summary of the method: as §1

gefitinib = compound: COc1cc2ncnc(Nc3ccc(F)c(Cl)c3)c2cc1OCCCN1CCOCC1 [gefitinib]
Summary of the method: as §1

lapatinib = compound: CS(=O)(=O)CCNCc1ccc(-c2ccc3ncnc(Nc4ccc(OCc5cccc(F)c5)c(Cl)c4)c3c2)o1 [lapatinib]
Summary of the method: as §1

pictilisib = compound: CS(=O)(=O)N1CCN(Cc2cc3nc(-c4cccc5[nH]ncc45)nc(N4CCOCC4)c3s2)CC1 [pictilisib]
Summary of the method: as §1

crizotinib = compound: C[C@@H](Oc1cc(-c2cnn(C3CCNCC3)c2)cnc1N)c1c(Cl)ccc(F)c1Cl [crizotinib]
Summary of the method: as §1

[5] = compound: C[C@H](C1=CC=C(C=C1)C(=O)NC2=C3C=CNC3=NC=C2)N
Summary of the method: as §1

duvelisib = compound: C[C@H](Nc1ncnc2nc[nH]c12)c1cc2cccc(Cl)c2c(=O)n1-c1ccccc1 [duvelisib]
Summary of the method: as §1

gandotinib = compound: Cc1cc(Nc2cc(CN3CCOCC3)c3nc(C)c(Cc4ccc(Cl)cc4F)n3n2)n[nH]1 [gandotinib]
Summary of the method: as §1

tozasertib = compound: Cc1cc(Nc2cc(N3CCN(C)CC3)nc(Sc3ccc(NC(=O)C4CC4)cc3)n2)n[nH]1 [tozasertib]
Summary of the method: as §1

doramapimod = compound: Cc1ccc(-n2nc(C(C)(C)C)cc2NC(=O)Nc2ccc(OCCN3CCOCC3)c3ccccc23)cc1 [doramapimod]
Summary of the method: as §1

bafetinib = compound: Cc1ccc(NC(=O)c2ccc(CN3CC[C@H](N(C)C)C3)c(C(F)(F)F)c2)cc1Nc1nccc(-c2cncnc2)n1 [bafetinib]
Summary of the method: as §1

[6] = compound: Cc1cccc(CC(=O)N2CCc3c2ccc(-c2cn(C)c4ncnc(N)c24)c3F)n1
Summary of the method: as §1

Measured: log2 fold change

EPHX2 (UniProt P34913)
inactive: alvocidib -0.018 | Tubastatin A 0.183 | [1] -0.023 | defactinib -0.002 | [2] 0.123 | encorafenib -0.02 | [3] -0.058 | alisertib -0.045 | [4] -0.007 | gefitinib -0.002 | lapatinib -0.031 | pictilisib -0.019 | crizotinib 0.061 | [5] 0.008 | duvelisib -0.031 | gandotinib 0.057 | tozasertib 0.116 | doramapimod -0.079 | bafetinib 0.131 | [6] 0.012

EMD (UniProt P50402)
inactive: alvocidib 0.006 | Tubastatin A -0.109 | [1] -0.029 | defactinib -0.02 | [2] 0.028 | encorafenib 0.039 | [3] -0.11 | alisertib -0.008 | [4] -0.011 | gefitinib 0.02 | lapatinib 0.015 | pictilisib -0.043 | crizotinib -0.035 | [5] 0.006 | duvelisib -0.044 | gandotinib 0.021 | tozasertib 0.012 | doramapimod 0.078 | bafetinib -0.002 | [6] 0.034

ELMO1 (UniProt Q92556)
inactive: alvocidib -0.004 | Tubastatin A -0.056 | [1] -0.022 | defactinib 0.046 | [2] 0.05 | encorafenib 0.012 | [3] -0.034 | alisertib 0.111 | [4] 0.003 | gefitinib 0.271 | lapatinib 0.01 | pictilisib -0.013 | crizotinib -0.152 | [5] -0.051 | duvelisib 0.032 | gandotinib -0.011 | tozasertib -0.055 | doramapimod 0.156 | bafetinib -0.183 | [6] 0.058

EIF5 (UniProt P55010)
inactive: alvocidib 0.017 | Tubastatin A 0.059 | [1] -0.012 | defactinib 0.002 | [2] 0.012 | encorafenib -0.018 | [3] -0.025 | alisertib 0.008 | [4] -0.004 | gefitinib -0.003 | lapatinib -0.005 | pictilisib -0.023 | crizotinib 0.01 | [5] 0.042 | duvelisib 0 | gandotinib -0.029 | tozasertib 0.018 | doramapimod -0.012 | bafetinib 0.027 | [6] -0.028

EIF2AK1 (UniProt Q9BQI3)
inactive: alvocidib 0.044 | Tubastatin A -0.044 | [1] 0.068 | defactinib -0.021 | [2] -0.028 | encorafenib -0.004 | [3] 0.041 | alisertib -0.004 | [4] 0.122 | gefitinib 0.101 | lapatinib 0.142 | pictilisib -0.022 | crizotinib -0.036 | [5] -0.033 | duvelisib 0.06 | gandotinib -0.009 | tozasertib -0.009 | doramapimod 0.017 | bafetinib -0.068 | [6] 0.062

EPN2 (UniProt O95208)
active: [5] -0.407
inactive: alvocidib -0.079 | Tubastatin A -0.008 | [1] 0.001 | defactinib 0.005 | [2] 0.009 | encorafenib 0.016 | [3] -0.051 | alisertib 0.002 | [4] 0.03 | gefitinib -0.014 | lapatinib -0.007 | pictilisib -0.037 | crizotinib -0.009 | duvelisib 0.055 | gandotinib 0.165 | tozasertib -0.036 | doramapimod 0.065 | bafetinib -0.027 | [6] 0.093

EIF4EBP2 (UniProt Q13542)
inactive: alvocidib 0.081 | Tubastatin A 0.179 | [1] 0.037 | defactinib 0.182 | [2] 0 | encorafenib 0.007 | [3] 0.025 | alisertib 0.061 | [4] -0.027 | gefitinib -0.227 | lapatinib 0.133 | pictilisib 0.014 | crizotinib 0.103 | [5] 0.172 | duvelisib 0.027 | gandotinib -0.171 | tozasertib -0.008 | doramapimod -0.122 | bafetinib -0.06 | [6] -0.079

ERCC6L (UniProt Q2NKX8)
inactive: alvocidib -0.01 | Tubastatin A -0.08 | [1] -0.001 | defactinib 0.04 | [2] -0.019 | encorafenib 0.044 | [3] 0.093 | alisertib -0.01 | [4] -0.017 | gefitinib 0.011 | lapatinib -0.019 | pictilisib -0.014 | crizotinib -0.01 | [5] 0.024 | duvelisib -0.034 | gandotinib -0.074 | tozasertib -0.003 | doramapimod 0.01 | bafetinib -0.056 | [6] -0.027

EIF4G1 (UniProt Q04637)
inactive: alvocidib 0.002 | Tubastatin A -0.053 | [1] 0.002 | defactinib 0.006 | [2] -0.008 | encorafenib 0.02 | [3] 0.053 | alisertib -0.003 | [4] 0.007 | gefitinib -0.009 | lapatinib -0.003 | pictilisib 0.002 | crizotinib 0.013 | [5] 0.014 | duvelisib -0.002 | gandotinib -0.086 | tozasertib -0.016 | doramapimod -0.001 | bafetinib 0.009 | [6] -0.026

ELF2 (UniProt Q15723)
inactive: alvocidib 0.023 | Tubastatin A 0.016 | [1] 0.024 | defactinib -0.013 | [2] -0.062 | encorafenib 0.028 | [3] 0.038 | alisertib -0.101 | [4] -0.06 | gefitinib 0.047 | pictilisib 0.039 | crizotinib -0.085 | [5] 0.033 | duvelisib 0.072 | gandotinib -0.046 | tozasertib -0.033 | doramapimod -0.042 | bafetinib -0.119 | [6] -0.075
active: lapatinib 0.256

ERAL1 (UniProt O75616)
inactive: alvocidib 0.005 | Tubastatin A -0.151 | [1] -0.03 | defactinib 0.027 | [2] -0.015 | encorafenib -0.018 | [3] 0.058 | alisertib -0.008 | [4] 0.016 | gefitinib 0.02 | lapatinib 0.075 | pictilisib -0.025 | crizotinib -0.035 | [5] -0.152 | duvelisib 0.014 | tozasertib 0.041 | doramapimod 0.006 | bafetinib -0.079 | [6] 0.03
active: gandotinib 0.321

EIF3H (UniProt O15372)
inactive: alvocidib -0.006 | Tubastatin A 0.001 | [1] -0.005 | defactinib 0.009 | [2] 0.006 | encorafenib 0.012 | [3] -0.042 | alisertib -0.005 | [4] 0.001 | gefitinib 0.011 | lapatinib -0.008 | pictilisib 0.009 | crizotinib -0.011 | [5] -0.013 | duvelisib 0.012 | gandotinib -0.002 | tozasertib -0.013 | doramapimod 0.015 | bafetinib 0.097 | [6] 0.008

EPCAM (UniProt P16422)
inactive: alvocidib 0.004 | Tubastatin A 0.046 | [1] -0.012 | defactinib -0.038 | [2] 0.01 | encorafenib 0.032 | [3] -0.076 | alisertib 0.008 | [4] -0.055 | gefitinib 0.028 | lapatinib -0.033 | pictilisib -0.017 | crizotinib 0.039 | [5] 0.029 | duvelisib 0.022 | gandotinib -0.07 | tozasertib -0.03 | doramapimod -0.003 | bafetinib -0.025 | [6] -0.05

EIF4G2 (UniProt P78344)
inactive: alvocidib 0.013 | Tubastatin A -0.09 | [1] -0.001 | defactinib 0.033 | [2] -0.036 | encorafenib 0.067 | [3] 0.048 | alisertib 0.028 | [4] 0.008 | gefitinib 0.004 | lapatinib -0.012 | pictilisib 0.049 | crizotinib 0.007 | [5] -0.006 | duvelisib -0.055 | gandotinib -0.093 | tozasertib 0.014 | doramapimod 0.053 | bafetinib -0.021 | [6] 0.018

ENO1, A0A2R8YEM5
active: [5] -0.469 | [6] 0.244
inactive: alvocidib -0.256 | Tubastatin A 0.104 | [1] 0.021 | defactinib 0.043 | [2] 0.002 | encorafenib 0.031 | [3] -0.035 | alisertib 0.006 | [4] -0.001 | gefitinib 0.035 | lapatinib -0.016 | pictilisib -0.037 | crizotinib 0.017 | duvelisib 0 | gandotinib 0.185 | tozasertib 0.001 | doramapimod -0.006 | bafetinib 0.036

4 successive entries out of the list so far, quoted:
ERAL1 (UniProt O75616)
inactive: alvocidib 0.005 | Tubastatin A -0.151 | [1] -0.03 | defactinib 0.027 | [2] -0.015 | encorafenib -0.018 | [3] 0.058 | alisertib -0.008 | [4] 0.016 | gefitinib 0.02 | lapatinib 0.075 | pictilisib -0.025 | crizotinib -0.035 | [5] -0.152 | duvelisib 0.014 | tozasertib 0.041 | doramapimod 0.006 | bafetinib -0.079 | [6] 0.03
active: gandotinib 0.321

EIF3H (UniProt O15372)
inactive: alvocidib -0.006 | Tubastatin A 0.001 | [1] -0.005 | defactinib 0.009 | [2] 0.006 | encorafenib 0.012 | [3] -0.042 | alisertib -0.005 | [4] 0.001 | gefitinib 0.011 | lapatinib -0.008 | pictilisib 0.009 | crizotinib -0.011 | [5] -0.013 | duvelisib 0.012 | gandotinib -0.002 | tozasertib -0.013 | doramapimod 0.015 | bafetinib 0.097 | [6] 0.008

EPCAM (UniProt P16422)
inactive: alvocidib 0.004 | Tubastatin A 0.046 | [1] -0.012 | defactinib -0.038 | [2] 0.01 | encorafenib 0.032 | [3] -0.076 | alisertib 0.008 | [4] -0.055 | gefitinib 0.028 | lapatinib -0.033 | pictilisib -0.017 | crizotinib 0.039 | [5] 0.029 | duvelisib 0.022 | gandotinib -0.07 | tozasertib -0.03 | doramapimod -0.003 | bafetinib -0.025 | [6] -0.05

EIF4G2 (UniProt P78344)
inactive: alvocidib 0.013 | Tubastatin A -0.09 | [1] -0.001 | defactinib 0.033 | [2] -0.036 | encorafenib 0.067 | [3] 0.048 | alisertib 0.028 | [4] 0.008 | gefitinib 0.004 | lapatinib -0.012 | pictilisib 0.049 | crizotinib 0.007 | [5] -0.006 | duvelisib -0.055 | gandotinib -0.093 | tozasertib 0.014 | doramapimod 0.053 | bafetinib -0.021 | [6] 0.018

(listing goes on)

ENY2 (UniProt Q9NPA8)
inactive: Tubastatin A -0.024 | [1] 0.016 | defactinib 0.096 | [2] -0.084 | encorafenib 0.004 | [3] -0.003 | alisertib 0.024 | [4] -0.019 | gefitinib -0.016 | lapatinib 0.025 | pictilisib -0.024 | crizotinib 0.031 | duvelisib 0.034 | tozasertib 0.019 | doramapimod -0.021 | bafetinib -0.07
active: alvocidib 0.351 | [5] 0.726 | gandotinib -0.386 | [6] -0.529

From the supplement of paper PMC10849652
